Measurements taken from paper PMC9343009.
No constants are given. Whether binding was seen depends on the method and setting. For some assays here: Binding seen in cells or lysates may run through a third protein. Some results given as binding are weak or reduced against the parent protein; the word gives no strength. For some assays here: Tags and fused reporters may be left off the sequences shown. Blank lines part the entries; values can stand above or below the molecule they belong to.

The chains behind the UniProt entries cited, without tags or fusion partners. Where a name states a change or a piece, a line headed by the entry shows the natural chain unless it says otherwise. Residues count along the entry.
UniProt O22476: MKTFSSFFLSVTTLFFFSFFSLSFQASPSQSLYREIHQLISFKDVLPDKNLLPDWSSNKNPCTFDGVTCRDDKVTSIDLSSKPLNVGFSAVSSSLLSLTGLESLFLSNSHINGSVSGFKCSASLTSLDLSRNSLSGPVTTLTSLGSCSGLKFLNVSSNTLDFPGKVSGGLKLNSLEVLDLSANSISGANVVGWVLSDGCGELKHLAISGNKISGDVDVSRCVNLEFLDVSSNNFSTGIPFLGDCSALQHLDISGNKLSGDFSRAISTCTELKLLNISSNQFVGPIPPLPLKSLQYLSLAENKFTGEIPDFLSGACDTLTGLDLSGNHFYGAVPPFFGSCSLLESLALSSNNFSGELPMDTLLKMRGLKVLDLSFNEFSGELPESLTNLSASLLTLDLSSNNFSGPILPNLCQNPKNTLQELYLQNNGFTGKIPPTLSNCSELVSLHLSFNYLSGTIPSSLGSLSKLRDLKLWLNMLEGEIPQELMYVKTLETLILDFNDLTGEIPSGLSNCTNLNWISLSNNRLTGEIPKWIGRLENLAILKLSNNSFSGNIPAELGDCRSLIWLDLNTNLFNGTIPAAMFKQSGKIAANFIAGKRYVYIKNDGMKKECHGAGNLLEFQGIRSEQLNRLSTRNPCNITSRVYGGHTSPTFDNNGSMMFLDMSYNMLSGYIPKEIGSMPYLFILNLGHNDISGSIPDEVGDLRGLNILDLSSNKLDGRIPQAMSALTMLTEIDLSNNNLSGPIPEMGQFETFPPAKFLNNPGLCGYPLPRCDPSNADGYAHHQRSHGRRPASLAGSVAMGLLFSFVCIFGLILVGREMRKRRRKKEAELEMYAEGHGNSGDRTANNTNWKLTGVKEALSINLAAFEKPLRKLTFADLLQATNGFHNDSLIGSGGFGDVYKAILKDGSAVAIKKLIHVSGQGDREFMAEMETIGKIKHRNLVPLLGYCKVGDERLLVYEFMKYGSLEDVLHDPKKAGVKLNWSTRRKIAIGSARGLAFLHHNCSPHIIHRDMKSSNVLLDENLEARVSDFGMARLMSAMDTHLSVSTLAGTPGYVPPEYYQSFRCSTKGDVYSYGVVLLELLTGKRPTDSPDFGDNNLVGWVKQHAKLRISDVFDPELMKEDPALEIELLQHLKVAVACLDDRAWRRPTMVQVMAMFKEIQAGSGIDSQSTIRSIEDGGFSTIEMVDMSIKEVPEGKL
BRI1-FLAG: residues 24-1196 of O22476

How the values were obtained:
[1] = molecular target: AHA1-Cub (Arabidopsis thaliana) (UniProt P20649); assay: two-hybrid; mating-based split ubiquitin system (mbSUS) in yeast; SAUR15, AHA1, AHA2 fused to Cub, BRI1 constructs fused to Nub; diploid cells on SD media with 0, 150 or 400 mM Met (so in the source)
[2] = molecular target: T1, AHA2-Cub (Arabidopsis thaliana) (UniProt P19456); assay: as above
T1 sequence: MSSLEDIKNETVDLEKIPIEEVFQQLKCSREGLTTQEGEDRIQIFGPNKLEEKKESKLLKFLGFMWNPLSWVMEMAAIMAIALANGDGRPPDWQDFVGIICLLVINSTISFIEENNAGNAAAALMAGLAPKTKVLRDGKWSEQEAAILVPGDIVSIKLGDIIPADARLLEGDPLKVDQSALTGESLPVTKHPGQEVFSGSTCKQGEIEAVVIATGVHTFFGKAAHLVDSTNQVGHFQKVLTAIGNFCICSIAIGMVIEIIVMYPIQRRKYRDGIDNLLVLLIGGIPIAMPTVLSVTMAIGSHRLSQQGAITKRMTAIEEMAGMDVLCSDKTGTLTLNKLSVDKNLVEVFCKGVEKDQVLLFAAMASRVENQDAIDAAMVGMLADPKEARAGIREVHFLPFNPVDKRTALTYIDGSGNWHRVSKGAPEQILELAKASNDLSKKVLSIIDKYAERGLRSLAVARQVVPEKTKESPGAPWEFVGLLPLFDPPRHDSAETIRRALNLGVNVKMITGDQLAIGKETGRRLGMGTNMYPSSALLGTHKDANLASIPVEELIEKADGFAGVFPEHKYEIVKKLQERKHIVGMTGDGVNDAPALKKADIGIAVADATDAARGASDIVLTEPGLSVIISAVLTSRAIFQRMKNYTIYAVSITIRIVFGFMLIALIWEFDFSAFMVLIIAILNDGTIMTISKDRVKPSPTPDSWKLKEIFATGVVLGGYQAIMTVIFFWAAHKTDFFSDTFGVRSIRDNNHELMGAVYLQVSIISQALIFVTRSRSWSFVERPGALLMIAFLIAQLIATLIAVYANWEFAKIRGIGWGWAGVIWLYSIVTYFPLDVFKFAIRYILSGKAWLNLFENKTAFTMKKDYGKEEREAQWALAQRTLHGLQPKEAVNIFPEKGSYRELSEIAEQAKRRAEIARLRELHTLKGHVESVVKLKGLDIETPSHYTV

[3] = molecular target: BRI1-YN (Arabidopsis thaliana) (UniProt O22476); assay: split reporter; BiFC in N. benthamiana leaves; YC and YN fusions co-infiltrated with Agrobacterium GV3101; confocal microscopy 48 h after infiltration
[4] = molecular target: BRI1-FLAG (Arabidopsis thaliana) (UniProt O22476); assay: co-IP; BRI1-FLAG immunoprecipitated with α-FLAG M2 affinity gel from the solubilized membrane fraction of transgenic Arabidopsis seedlings; blots with α-GFP or α-AHA; seedlings treated with 1 μM BL for 2 h (for BAK1 and AHA also untreated, for AHA also 1 μM BRZ for 18 h; Col-0, saur15-1 and SAUR15-3HA backgrounds)

- binding [1]: binds
- binding [2]: binds
Molecule: BRI1-FL-Nub (from UniProt O22476 1-1196) (receptor)

- binding [3]: binds
B1: SAUR15-YC (protein, UniProt Q41220 1-89)
chain: MAFLRSFLGAKQIIRRESSSTPRGFMAVYVGENDQKKKRYVVPVSYLNQPLFQQLLSKSEEEFGYDHPMGGLTIPCHESLFFTVTSQIQ

- binding [4]: binds
B2: SAUR15-GFP (protein, UniProt Q41220 1-89)
chain: MAFLRSFLGAKQIIRRESSSTPRGFMAVYVGENDQKKKRYVVPVSYLNQPLFQQLLSKSEEEFGYDHPMGGLTIPCHESLFFTVTSQIQ

- binding [4]: binds
B3: BAK1-GFP (receptor, UniProt Q94F62 26-615)
chain: NAEGDALSALKNSLADPNKVLQSWDATLVTPCTWFHVTCNSDNSVTRVDLGNANLSGQLVMQLGQLPNLQYLELYSNNITGTIPEQLGNLTELVSLDLYLNNLSGPIPSTLGRLKKLRFLRLNNNSLSGEIPRSLTAVLTLQVLDLSNNPLTGDIPVNGSFSLFTPISFANTKLTPLPASPPPPISPTPPSPAGSNRITGAIAGGVAAGAALLFAVPAIALAWWRRKKPQDHFFDVPAEEDPEVHLGQLKRFSLRELQVASDNFSNKNILGRGGFGKVYKGRLADGTLVAVKRLKEERTQGGELQFQTEVEMISMAVHRNLLRLRGFCMTPTERLLVYPYMANGSVASCLRERPESQPPLDWPKRQRIALGSARGLAYLHDHCDPKIIHRDVKAANILLDEEFEAVVGDFGLAKLMDYKDTHVTTAVRGTIGHIAPEYLSTGKSSEKTDVFGYGVMLLELITGQRAFDLARLANDDDVMLLDWVKGLLKEKKLEALVDVDLQGNYKDEEVEQLIQVALLCTQSSPMERPKMSEVVRMLEGDGLAERWEEWQKEEMFRQDFNYPTHHPAVSGWIIGDSTSQIENEYPSGPR
